This passage reports NP40-soluble protein abundance results from the supplement of paper PMC6411743.

In the assay the target is T1, GBP1 (UniProt P32455).
T1 sequence (whole entry): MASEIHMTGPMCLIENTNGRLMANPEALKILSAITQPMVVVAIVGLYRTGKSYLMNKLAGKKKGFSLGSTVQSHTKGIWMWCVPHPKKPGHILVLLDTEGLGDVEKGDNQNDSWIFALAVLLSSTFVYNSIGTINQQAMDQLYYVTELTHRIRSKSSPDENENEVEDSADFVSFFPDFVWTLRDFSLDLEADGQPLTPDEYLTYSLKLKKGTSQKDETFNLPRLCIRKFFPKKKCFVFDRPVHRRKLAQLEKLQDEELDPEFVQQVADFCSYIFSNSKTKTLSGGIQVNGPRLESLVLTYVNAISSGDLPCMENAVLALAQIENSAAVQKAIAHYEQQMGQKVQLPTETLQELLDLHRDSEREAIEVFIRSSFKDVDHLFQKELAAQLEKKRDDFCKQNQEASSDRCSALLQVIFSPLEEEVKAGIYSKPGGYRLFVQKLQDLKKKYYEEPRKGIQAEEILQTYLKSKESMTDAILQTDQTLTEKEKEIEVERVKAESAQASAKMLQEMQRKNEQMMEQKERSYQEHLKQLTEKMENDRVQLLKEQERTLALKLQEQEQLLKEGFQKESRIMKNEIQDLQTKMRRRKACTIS
Nature of the assay: NP40-soluble protein abundance relative to vehicle (solubility fold change) (ratio); higher = more soluble protein in presence of GTP. The method, then:
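Solubility proteome profiling in Jurkat crude lysate. Lysate was treated with Mg-GTP (0.1-10 mM) for 10 min at room temperature and 3 min at 37 °C, then solubilised with 0.8% NP40 and benzonase, followed by ultracentrifugation. Proteins were quantified by TMT10 LC-MS/MS; the value is the NP40-soluble abundance relative to the NP40-processed vehicle, from 3 independent experiments.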

SMILES strings stand for the structures. ± gives the standard deviation of the averaged measurements. Some of the results follow.

For `Nc1nc2c(ncn2[C@@H]2O[C@H](COP(=O)(O)OP(=O)(O)OP(=O)(O)O)[C@@H](O)[C@H]2O)c(=O)[nH]1` [guanosine triphosphate], the NP40-soluble protein abundance (concentration: 0.1mM) amounted to 0.953 ± 0.071; the NP40-soluble protein abundance (concentration: 0.5mM) amounted to 0.946 ± 0.069; the NP40-soluble protein abundance (concentration: 1mM) is 0.927 ± 0.065; the NP40-soluble protein abundance (concentration: 2mM) turned out to be 0.89 ± 0.079; the NP40-soluble protein abundance (concentration: 4mM) was 0.873 ± 0.077; the NP40-soluble protein abundance (concentration: 6mM) is 0.877 ± 0.091. The NP40-soluble protein abundance reads like this: (concentration: 8mM) 0.91 ± 0.067; (concentration: 10mM) 0.883 ± 0.085.
